# Library screening results

Data taken from ChEMBL document CHEMBL3988442, “University of Dundee, Small-Polar-MMV Screening Library” (2021).

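Viability assay of Plasmodium falciparum sporozoites; the read-out is not stated. The concentration is filed as 10 mM, unlikely as a test dose, so the dose is not known. Higher reads as lower viability (inferred: compounds with an IC50 in retests scored well above the rest). Strong results were mostly tested again. About 34,000 compounds were tested under these conditions; 0.84% (about 280) showed 50% or more at least once.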

Values are the deposited “Percent Effect”, in %. How 0% and 100% were set is not recorded. Most values in the screen are low, and negative values occur. This is an unselected part of the compounds tested. Two or more numbers in one place are separate tests of the same structure; such repeats can differ widely.

- CC(NC(=O)N1CCC(CC(N)=O)CC1)c1csc2ccccc12 (centres undefined) : -10.01%
- [H][C@@]12CN(CCOC)C[C@]1([H])[C@H](OC)CCN2C(=O)c1cccs1 : 1.678%
- O=C(O)C(F)(F)F.[H][C@@]12CCN(c3cccc(F)c3)C[C@@]1([H])O[C@@H](C(=O)N1CCCCO1)C2 : -3.035%
- O=C(NCCN1CCOCC1)c1n[nH]c(=O)c2ccccc12 : -5.724%
- Cc1nc2ccccc2nc1CN1CCCC1Cn1cncn1 (centres undefined) : -19.25% & -0.2312% & -4.849%
- CCn1cnnc1CNC(=O)N1CCCC1 : 2.153%
- Cc1nc(CN(C)C2CCCN(Cc3noc(C4CC4)n3)C2)oc1C (centres undefined) : 10.32%
- CC(C)(C)c1nc(CN(Cc2ccccc2F)C2CCCCC2)no1 : 5.965%
- Cl.c1cnc(N2CCCC(NCc3cccc4c3OCCO4)C2)nc1 (centres undefined) : -3.04%
- CC(C)NC(=O)N1CCc2nc(C(=O)NCc3ccccc3)sc2CC1 : -0.6857%
- c1cnn(CC2CCCN2Cc2noc(C3CC3)n2)c1 (centres undefined) : 14.31%
- CN1CC2(COCCN(c3ncccn3)C2)OCC1=O (centres undefined) : -7.899%
- CCOc1ccc(Cl)c(C(=O)NCCC(=O)Nc2ccccn2)n1 : 17.36%
- c1cnc(NCc2noc3c2CN(C2CCOCC2)CC3)nc1 : -2.922%
- COc1cccc(OCC2CCCN(C3CCN(C(C)=O)CC3)C2)c1 (centres undefined) : -11.14% & -12.8% & -12.12%
- CCN1CCN(Cc2ccnc(-c3cccnc3)n2)CC1.O=C(O)CC(O)(CC(=O)O)C(=O)O : -1.303%
- COCC1CN(Cc2ccc3c(c2)OCO3)Cc2ncn(C)c21.O=C(O)C(F)(F)F.O=C(O)C(F)(F)F (centres undefined) : -5.282%
- Cc1ccc(OCCC(=O)N2CCN(c3cnccn3)CC2)cc1C : -8.533%
- Cc1ccc2c(c1)C(=O)NCC1(CCN(C(=O)c3cnccn3)CC1)O2 : 4.326%
- CN(CCc1ccccc1)Cc1c(C2CCOCC2)[nH]c2ncccc12 : -5.711%
- O=C(Nc1ccccc1)N1CC(C(=O)N2CCCC2)C2(CCOCC2)C1 (centres undefined) : 1.07%

Repeated from the top, 2 entries:

- CC(NC(=O)N1CCC(CC(N)=O)CC1)c1csc2ccccc12 (centres undefined) | -10.01%
- [H][C@@]12CN(CCOC)C[C@]1([H])[C@H](OC)CCN2C(=O)c1cccs1 | 1.678%